According to article PMC5428432:
Results are given in words; binding and its absence hold for the method and conditions named. For some of these results: In cells and extracts the contact can be indirect. Some binding calls cover weakened binding; strength is not graded here.

Sequences of proteins named here, by UniProt entry; tags and fusion partners are left off.
UniProt O95069: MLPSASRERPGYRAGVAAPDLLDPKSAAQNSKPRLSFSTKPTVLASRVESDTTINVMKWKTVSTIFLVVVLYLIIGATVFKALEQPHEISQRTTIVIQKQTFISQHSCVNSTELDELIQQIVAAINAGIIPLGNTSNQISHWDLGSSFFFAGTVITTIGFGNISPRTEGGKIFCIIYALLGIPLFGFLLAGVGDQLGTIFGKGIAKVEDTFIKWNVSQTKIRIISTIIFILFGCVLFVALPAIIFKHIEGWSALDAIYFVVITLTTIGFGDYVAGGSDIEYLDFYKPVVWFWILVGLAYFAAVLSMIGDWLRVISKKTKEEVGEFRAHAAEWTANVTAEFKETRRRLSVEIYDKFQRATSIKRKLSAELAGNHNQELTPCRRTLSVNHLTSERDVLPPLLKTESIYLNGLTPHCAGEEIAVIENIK

Columns and labels:
[1] = molecular target: T1, cochlin (in human TM samples) (human (endogenous in human TM)) (UniProt O43405); experiment: co-IP; human TM samples, normal and glaucomatous; reciprocal immunoprecipitation with anti-cochlin or anti-TREK-1 antibody on Protein A/G magnetic beads; Western blot
T1 sequence: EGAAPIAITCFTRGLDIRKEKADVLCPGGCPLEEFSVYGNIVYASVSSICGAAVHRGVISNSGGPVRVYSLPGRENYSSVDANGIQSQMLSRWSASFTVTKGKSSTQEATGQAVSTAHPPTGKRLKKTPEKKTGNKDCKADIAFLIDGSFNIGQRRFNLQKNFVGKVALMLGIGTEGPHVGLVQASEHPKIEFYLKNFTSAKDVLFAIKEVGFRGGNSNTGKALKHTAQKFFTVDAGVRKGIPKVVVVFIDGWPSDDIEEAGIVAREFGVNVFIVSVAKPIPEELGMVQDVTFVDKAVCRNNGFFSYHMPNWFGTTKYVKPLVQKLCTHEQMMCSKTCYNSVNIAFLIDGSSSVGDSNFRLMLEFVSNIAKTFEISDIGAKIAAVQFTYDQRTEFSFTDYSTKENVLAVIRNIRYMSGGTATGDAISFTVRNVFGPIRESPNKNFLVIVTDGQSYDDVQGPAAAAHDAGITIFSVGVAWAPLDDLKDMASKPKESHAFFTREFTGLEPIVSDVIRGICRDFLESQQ

[2] = molecular target: T2, cochlin (purified, exogenous) (human) (UniProt O43405); experiment: co-IP; 1-2 ug purified cochlin, native (monomeric, no shear stress), added to 100 ug human TM protein extract (50 mM Tris-HCl pH 7.5, 125 mM NaCl, 0.1% genapol), 2 h room temperature; anti-cochlin (hCochlin#3) antibody on Protein A/G magnetic beads; Western blot for TREK-1; only the target purified
T2 sequence: T1 sequence

[3] = molecular target: T2, cochlin (purified, exogenous) (human); experiment: co-IP; 1-2 ug purified cochlin multimerized by shear stress (30-gauge needle, 10-20 passes) added to 100 ug human TM protein extract (50 mM Tris-HCl pH 7.5, 125 mM NaCl, 0.1% genapol), 2 h room temperature; anti-cochlin (hCochlin#3) antibody on Protein A/G magnetic beads; Western blot for TREK-1; only the target purified
[4] = molecular target: T3, cochlin (purified, exogenous) (human), O43405; experiment: non-reducing denaturing gel with Western blot; about 10 ug purified cochlin passed through a 30-gauge needle 10-20 times (shear stress); 4-20% Tris-glycine gel, non-reducing but denaturing; blot probed for cochlin; both purified; conditions: remark: other sources report otherwise
T3 chain: T1 sequence

## TREK-1 (stretch-activated K+ channel) (from UniProt O95069 1-426)
[1]
  binding: binds
[2]
  binding: binds
[3]
  binding: binds

B1: cochlin (purified, exogenous), O43405-1 25-550 (protein)
chain: T1 sequence
[4]
  binding: binds
